The record followed here is doi:10.1101/2025.07.27.666936.

By UniProt entry, the sequences of proteins in these tests, tags left out. Where a name states a change or a piece, a line headed by the entry shows the natural chain unless it says otherwise. Residues count along the entry.
UniProt P23458: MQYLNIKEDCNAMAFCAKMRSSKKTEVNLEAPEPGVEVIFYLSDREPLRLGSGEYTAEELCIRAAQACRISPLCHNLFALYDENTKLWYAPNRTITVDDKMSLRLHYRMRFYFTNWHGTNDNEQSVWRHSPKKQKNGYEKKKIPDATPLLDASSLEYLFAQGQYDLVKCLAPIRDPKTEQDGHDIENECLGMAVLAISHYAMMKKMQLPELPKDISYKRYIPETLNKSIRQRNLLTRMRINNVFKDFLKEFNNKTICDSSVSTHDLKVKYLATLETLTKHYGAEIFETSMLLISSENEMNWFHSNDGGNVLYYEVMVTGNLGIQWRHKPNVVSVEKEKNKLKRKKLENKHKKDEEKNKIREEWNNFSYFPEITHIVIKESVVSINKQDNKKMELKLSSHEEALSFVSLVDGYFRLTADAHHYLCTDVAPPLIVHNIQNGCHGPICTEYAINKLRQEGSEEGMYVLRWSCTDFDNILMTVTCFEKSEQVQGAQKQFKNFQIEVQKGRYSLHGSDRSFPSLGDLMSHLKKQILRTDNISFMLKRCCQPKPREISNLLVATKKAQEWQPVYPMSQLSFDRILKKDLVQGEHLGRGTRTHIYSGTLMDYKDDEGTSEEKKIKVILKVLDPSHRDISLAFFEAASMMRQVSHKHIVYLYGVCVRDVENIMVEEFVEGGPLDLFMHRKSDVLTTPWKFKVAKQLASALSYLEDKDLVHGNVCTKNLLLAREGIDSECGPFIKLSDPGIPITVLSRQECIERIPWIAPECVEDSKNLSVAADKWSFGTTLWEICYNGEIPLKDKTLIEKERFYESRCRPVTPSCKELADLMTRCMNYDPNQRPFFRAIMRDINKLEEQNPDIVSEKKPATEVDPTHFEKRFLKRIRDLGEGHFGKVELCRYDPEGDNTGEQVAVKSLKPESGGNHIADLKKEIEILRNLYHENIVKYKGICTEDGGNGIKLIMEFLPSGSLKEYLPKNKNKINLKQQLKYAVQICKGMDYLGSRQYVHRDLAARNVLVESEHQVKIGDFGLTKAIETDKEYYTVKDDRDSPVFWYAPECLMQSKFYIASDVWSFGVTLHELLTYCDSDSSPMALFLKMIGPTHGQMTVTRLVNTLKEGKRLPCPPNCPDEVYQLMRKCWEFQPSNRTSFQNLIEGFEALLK
UniProt P52332: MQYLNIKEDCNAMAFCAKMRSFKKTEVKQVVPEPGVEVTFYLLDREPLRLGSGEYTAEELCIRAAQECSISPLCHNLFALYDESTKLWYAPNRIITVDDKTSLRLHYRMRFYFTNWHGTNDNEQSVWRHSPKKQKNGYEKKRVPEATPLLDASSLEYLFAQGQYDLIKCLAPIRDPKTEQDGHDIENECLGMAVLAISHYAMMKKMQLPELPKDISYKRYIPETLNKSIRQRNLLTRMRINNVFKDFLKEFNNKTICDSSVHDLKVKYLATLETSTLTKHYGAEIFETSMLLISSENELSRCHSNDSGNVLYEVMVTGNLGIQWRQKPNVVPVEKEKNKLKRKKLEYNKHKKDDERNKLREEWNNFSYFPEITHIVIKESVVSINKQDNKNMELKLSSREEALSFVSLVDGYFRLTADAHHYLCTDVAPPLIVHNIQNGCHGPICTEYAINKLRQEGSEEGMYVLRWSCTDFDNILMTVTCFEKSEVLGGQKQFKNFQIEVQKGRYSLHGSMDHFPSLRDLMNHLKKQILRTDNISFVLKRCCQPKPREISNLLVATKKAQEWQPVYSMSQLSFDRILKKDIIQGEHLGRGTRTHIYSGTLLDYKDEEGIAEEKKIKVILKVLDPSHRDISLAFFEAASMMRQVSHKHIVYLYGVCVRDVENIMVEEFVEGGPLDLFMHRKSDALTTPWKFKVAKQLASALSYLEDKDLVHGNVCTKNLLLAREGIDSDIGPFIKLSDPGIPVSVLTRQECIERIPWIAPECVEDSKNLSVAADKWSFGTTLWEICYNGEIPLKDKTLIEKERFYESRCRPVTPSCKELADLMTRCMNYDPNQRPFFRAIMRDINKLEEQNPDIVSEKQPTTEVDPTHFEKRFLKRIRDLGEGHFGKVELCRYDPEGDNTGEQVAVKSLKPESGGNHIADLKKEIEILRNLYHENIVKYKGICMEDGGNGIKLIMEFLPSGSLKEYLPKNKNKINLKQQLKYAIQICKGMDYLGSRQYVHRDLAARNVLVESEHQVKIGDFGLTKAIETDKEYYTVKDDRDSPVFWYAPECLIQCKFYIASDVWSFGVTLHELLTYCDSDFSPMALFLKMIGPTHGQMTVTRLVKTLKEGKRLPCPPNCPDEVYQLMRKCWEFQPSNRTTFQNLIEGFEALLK
UniProt Q9R117: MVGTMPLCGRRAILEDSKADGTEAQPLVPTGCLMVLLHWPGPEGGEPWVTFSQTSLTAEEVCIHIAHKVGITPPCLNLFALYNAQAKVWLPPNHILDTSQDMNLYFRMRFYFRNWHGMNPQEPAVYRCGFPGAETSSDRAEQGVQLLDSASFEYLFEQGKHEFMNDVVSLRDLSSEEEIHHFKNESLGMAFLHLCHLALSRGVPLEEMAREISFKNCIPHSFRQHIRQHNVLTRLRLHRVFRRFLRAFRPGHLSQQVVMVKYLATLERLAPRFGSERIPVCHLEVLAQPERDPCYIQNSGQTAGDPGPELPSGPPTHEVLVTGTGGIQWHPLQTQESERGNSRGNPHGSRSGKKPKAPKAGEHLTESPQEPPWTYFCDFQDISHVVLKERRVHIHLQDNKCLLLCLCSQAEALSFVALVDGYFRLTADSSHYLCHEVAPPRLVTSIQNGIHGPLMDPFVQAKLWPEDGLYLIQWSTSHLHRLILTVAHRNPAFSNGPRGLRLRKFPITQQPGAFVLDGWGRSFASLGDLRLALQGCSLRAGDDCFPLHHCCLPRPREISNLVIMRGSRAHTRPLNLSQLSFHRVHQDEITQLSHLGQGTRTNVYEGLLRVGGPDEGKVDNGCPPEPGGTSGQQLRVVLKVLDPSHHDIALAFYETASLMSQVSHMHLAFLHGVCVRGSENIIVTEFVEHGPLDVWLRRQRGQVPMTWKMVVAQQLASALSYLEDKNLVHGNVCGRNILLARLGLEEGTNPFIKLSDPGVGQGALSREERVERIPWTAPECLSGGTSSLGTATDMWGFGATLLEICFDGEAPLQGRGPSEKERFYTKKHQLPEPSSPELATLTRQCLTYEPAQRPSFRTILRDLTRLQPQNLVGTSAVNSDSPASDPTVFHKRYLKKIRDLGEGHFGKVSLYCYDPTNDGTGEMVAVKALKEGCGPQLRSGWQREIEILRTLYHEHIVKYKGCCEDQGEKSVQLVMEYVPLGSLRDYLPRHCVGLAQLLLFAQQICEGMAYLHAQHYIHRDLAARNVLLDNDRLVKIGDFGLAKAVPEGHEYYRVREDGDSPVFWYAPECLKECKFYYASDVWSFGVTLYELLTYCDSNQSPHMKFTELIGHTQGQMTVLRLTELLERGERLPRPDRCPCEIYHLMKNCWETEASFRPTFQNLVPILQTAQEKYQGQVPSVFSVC
UniProt O08586: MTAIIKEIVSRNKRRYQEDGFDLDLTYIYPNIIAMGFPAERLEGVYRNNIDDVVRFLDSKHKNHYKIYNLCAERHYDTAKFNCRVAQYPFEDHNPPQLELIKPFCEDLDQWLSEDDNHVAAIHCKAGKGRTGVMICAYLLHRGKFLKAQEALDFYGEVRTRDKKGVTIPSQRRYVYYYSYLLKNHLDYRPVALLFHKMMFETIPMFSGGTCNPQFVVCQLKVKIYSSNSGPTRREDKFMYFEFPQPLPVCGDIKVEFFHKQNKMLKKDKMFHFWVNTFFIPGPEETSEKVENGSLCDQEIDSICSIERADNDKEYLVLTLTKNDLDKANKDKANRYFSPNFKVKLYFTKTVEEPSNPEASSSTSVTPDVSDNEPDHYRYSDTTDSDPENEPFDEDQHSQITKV
UniProt P09055, residues 21-798: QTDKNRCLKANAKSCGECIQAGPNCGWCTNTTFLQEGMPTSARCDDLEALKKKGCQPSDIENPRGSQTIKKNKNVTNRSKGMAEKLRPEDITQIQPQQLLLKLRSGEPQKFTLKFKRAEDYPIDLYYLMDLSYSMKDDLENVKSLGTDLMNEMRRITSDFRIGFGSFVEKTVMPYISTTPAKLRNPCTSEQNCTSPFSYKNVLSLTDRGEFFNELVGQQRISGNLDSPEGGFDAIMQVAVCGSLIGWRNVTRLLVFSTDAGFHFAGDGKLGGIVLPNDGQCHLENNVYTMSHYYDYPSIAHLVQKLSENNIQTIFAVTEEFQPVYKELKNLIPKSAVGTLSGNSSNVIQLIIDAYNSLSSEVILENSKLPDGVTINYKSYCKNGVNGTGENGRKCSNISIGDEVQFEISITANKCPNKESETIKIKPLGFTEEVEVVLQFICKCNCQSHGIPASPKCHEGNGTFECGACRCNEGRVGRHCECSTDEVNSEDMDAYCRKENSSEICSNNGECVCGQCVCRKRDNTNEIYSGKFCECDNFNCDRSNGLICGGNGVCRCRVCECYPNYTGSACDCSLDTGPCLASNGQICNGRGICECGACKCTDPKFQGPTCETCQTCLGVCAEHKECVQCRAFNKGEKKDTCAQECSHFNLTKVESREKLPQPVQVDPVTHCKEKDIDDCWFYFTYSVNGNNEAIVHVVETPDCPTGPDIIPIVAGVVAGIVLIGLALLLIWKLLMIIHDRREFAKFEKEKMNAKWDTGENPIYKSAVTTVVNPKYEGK

Targets include Cav1(WT)-mRFP (UniProt Q03135); Cav1(W98A)-mRFP (UniProt Q03135); Cav1(F92A/V94A)-mRFP (UniProt Q03135).
Common to all, as to assay: co-IP
Assay [1] concerns the target T1, caveolin-1 (endogenous, mouse lung endothelial cells) (mouse (endogenous in MLEC)) (UniProt P49817).
T1 sequence: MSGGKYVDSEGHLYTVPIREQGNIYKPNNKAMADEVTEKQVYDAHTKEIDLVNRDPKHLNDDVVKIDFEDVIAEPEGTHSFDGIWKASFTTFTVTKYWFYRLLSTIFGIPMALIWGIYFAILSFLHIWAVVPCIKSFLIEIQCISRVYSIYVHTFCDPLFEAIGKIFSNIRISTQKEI

In assay [2] the target is T1, caveolin-1 (endogenous, mouse lung endothelial cells) (mouse (endogenous in MLEC)). The source holds these as a separate data set.

Like-named read-outs stand apart in the source and are kept apart here. These are yes or no findings as the source states them, for the method shown. In cells and extracts the contact can be indirect. Some binding calls cover weakened binding; strength is not graded here.

Take “ALFA-tagged JAK1 Δ1057-1154 (from UniProt P23458 1-1056) (domain or fragment)”: the binding result in assay [1] is given as “no binding”.
Still for that read-out and setting: for “ALFA-tagged JAK1 Δ1072-1154 (from UniProt P23458 1-1071) (domain or fragment)” the value was “binds”.
On to “JAK1 (endogenous, mouse lung endothelial cells) (from UniProt P52332 1-1153) (enzyme)”, for which the binding result with Cav1(WT)-mRFP is listed as “binds”; in assay [1] it was “binds”; with Cav1(W98A)-mRFP, “no binding”; with Cav1(F92A/V94A)-mRFP, “no binding”.
Regarding “TYK2 (endogenous) (from UniProt Q9R117 1-1184) (enzyme)”, the binding entry with Cav1(WT)-mRFP was “no binding”.
Take “phosphatase and tensin homolog (PTEN), endogenous (from UniProt O08586 1-403) (enzyme)”: the binding entry in assay [1] is “binds”.
Same read-out and setting: for “β1-integrin (endogenous) (from UniProt P09055 21-798) (receptor)” the value was “no binding”.

B1: protein tyrosine phosphatase 1B (PTP1B), endogenous (enzyme, UniProt P35821 1-432)
chain: MEMEKEFEEIDKAGNWAAIYQDIRHEASDFPCKVAKLPKNKNRNRYRDVSPFDHSRIKLHQEDNDYINASLIKMEEAQRSYILTQGPLPNTCGHFWEMVWEQKSRGVVMLNRIMEKGSLKCAQYWPQQEEKEMVFDDTGLKLTLISEDVKSYYTVRQLELENLTTKETREILHFHYTTWPDFGVPESPASFLNFLFKVRESGSLSLEHGPIVVHCSAGIGRSGTFCLADTCLLLMDKRKDPSSVDIKKVLLEMRRFRMGLIQTADQLRFSYLAVIEGAKFIMGDSSVQDQWKELSREDLDLPPEHVPPPPRPPKRTLEPHNGKCKELFSSHQWVSEETCGDEDSLAREEGRAQSSAMHSVSSMSPDTEVRRRMVGGGLQSAQASVPTEEELSSTEEEHKAHWPSHWKPFLVNVCMATLLATGAYLCYRVCFH
In the case of B1, the binding entry in assay [2] is given as “binds”.

B2: endothelial nitric oxide synthase (eNOS), endogenous (enzyme, UniProt P70313 1-1202)
chain: MGNLKSVGQEPGPPCGLGLGLGLGLCGKQGPASPAPEPSQAPAPPSPTRPAPDHSPPLTRPPDGPRFPRVKNWEVGSITYDTLSAQAQQDGPCTSRRCLGSLVFPRKLQSRPTQGPSPTEQLLGQARDFINQYYNSIKRSGSQAHEQRLQEVEAEVAATGTYQLRESELVFGAKQAWRNAPRCVGRIQWGKLQVFDARDCRTAQEMFTYICNHIKYATNRGNLRSAITVFPQRCPGRGDFRIWNSQLIRYAGYRQQDGSVRGDPANVEITELCIQHGWTPGNGRFDVLPLLLQAPDEPPELFTLPPEMVLEVPLEHPTLEWFAALGLRWYALPAVSNMLLEIGGLEFPAAPFSGWYMSSEIGMRDLCDPHRYNILEDVAVCMDLDTRTTSSLWKDKAAVEINVAVLHSYQLAKVTIVDHHAATASFMKHLENEQKARGGCPADWAWIVPPISGSLTPVFHQEMVNYFLSPAFRYQPDPWKGSAAKGAGITRKKTFKEVANAVKISASLMGTVMAKRVKATILYGSETGRAQSYAQQLGRLFRKAFDPRVLCMDEYDVVSLEHEALVLVVTSTFGNGDPPENGESFAAALMEMSGPYNSSPRPEQHKSYKIRFNSVSCSDPLVSSWRRKRKESSNTDSAGALGTLRFCVFGLGSRAYPHFCAFARAVDTRLEELGGERLLQLGQGDELCGQEEAFRGWAQAAFQAACETFCVGEDAKAAARDIFSPKRSWKRQRYRLSTQAESLQLLPGLTHVHRRKMFQATILSVENLQSSKSTRATILVRLDTGGQEGLQYQPGDHIGVCPPNRPGLVEALLSRVEDPPPSTEPVAVEQLEKGSPGGPPPGWVRDPRLPPCTLRQALTYFLDITSPPSPRLLRLLSTLAEESSEQQELEALSQDPRRYEEWKWFSCPTLLEVLEQFPSVALPAPLILTQLPLLQPRYYSVSSAPSAHPGEIHLTIAVLAYRTQDGLGPLHYGVCSTWMSQLKAGDPVPCFIRGAPSFRLPPDPNLPCILVGPGTGIAPFRGFWQDRLHDIEIKGLQPAPMTLVFGCRCSQLDHLYRDEVLDAQQRGVFGQVLTAFSRDPGSPKTYVQDLLRTELAAEVHRVLCLEQGHMFVCGDVTMATSVLQTVQRILATEGGMELDEAGDVIGVLRDQQRYHEDIFGLTLRTQEVTSRIRTQSFSLQERQLRGAVPWSFDPPGPEIPGS
Regarding B2, the binding entry in assay [2] is listed as “binds”.
